Laboratory results reported in paper PMC8195676.
These are yes or no findings as the source states them, for the method shown. In cells and extracts the contact can be indirect. Some results given as binding are weak or reduced against the parent protein; the word gives no strength. Sequences can lack the tags named with a protein.

Protein sequences, listed by entry. Tags and fused reporters are not part of them.
UniProt Q61025: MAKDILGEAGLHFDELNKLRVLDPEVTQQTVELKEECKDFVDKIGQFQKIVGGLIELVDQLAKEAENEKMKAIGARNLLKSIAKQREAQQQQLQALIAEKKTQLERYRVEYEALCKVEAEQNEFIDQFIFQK

Key:
[1] = molecular target: T1, cilia and flagella associated protein 53 (CFAP53), MYC-tagged (mouse) (UniProt Q9D439); assay: co-IP; HEK293T cells co-transfected with Myc-Cfap53 and Flag-Ift20, collected 48 h after transfection; IP with anti-MYC antibody; blots with anti-MYC and anti-FLAG
T1 sequence: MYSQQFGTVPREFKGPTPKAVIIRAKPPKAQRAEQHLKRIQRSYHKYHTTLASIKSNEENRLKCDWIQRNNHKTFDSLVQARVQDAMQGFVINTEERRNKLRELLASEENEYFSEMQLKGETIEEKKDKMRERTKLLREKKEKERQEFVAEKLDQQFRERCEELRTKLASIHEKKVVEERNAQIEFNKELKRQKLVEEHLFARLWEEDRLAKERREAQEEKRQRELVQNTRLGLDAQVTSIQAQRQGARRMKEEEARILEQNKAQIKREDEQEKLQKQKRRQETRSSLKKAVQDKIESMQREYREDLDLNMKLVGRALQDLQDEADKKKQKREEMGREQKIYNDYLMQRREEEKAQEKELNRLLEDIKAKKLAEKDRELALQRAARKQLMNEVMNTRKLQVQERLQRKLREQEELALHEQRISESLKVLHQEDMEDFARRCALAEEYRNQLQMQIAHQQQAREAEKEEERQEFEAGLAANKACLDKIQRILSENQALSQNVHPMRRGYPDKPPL

[2] = molecular target: T2, coiled-coil domain containing 42 (CCDC42), GFP-tagged (mouse) (UniProt Q5SV66); assay: co-IP; HEK293T cells co-transfected, collected 48 h after transfection; lysed in ELB buffer (50 mM HEPES, 250 mM NaCl, 0.1% NP-40); IP with anti-GFP antibody overnight at 4°C, protein A-Sepharose; blots with anti-MYC and anti-GFP
T2 sequence: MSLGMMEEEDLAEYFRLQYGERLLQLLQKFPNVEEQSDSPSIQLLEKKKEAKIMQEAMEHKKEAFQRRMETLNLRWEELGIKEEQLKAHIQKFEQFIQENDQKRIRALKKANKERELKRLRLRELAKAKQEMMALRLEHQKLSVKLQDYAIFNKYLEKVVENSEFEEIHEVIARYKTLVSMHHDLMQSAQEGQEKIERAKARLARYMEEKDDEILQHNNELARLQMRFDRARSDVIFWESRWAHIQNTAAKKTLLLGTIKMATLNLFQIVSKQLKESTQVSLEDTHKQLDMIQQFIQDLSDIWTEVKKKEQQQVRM

[3] = molecular target: T3, intraflagellar transport protein 88 (IFT88), GFP-tagged (mouse) (UniProt Q61371); assay: as above
T3 sequence: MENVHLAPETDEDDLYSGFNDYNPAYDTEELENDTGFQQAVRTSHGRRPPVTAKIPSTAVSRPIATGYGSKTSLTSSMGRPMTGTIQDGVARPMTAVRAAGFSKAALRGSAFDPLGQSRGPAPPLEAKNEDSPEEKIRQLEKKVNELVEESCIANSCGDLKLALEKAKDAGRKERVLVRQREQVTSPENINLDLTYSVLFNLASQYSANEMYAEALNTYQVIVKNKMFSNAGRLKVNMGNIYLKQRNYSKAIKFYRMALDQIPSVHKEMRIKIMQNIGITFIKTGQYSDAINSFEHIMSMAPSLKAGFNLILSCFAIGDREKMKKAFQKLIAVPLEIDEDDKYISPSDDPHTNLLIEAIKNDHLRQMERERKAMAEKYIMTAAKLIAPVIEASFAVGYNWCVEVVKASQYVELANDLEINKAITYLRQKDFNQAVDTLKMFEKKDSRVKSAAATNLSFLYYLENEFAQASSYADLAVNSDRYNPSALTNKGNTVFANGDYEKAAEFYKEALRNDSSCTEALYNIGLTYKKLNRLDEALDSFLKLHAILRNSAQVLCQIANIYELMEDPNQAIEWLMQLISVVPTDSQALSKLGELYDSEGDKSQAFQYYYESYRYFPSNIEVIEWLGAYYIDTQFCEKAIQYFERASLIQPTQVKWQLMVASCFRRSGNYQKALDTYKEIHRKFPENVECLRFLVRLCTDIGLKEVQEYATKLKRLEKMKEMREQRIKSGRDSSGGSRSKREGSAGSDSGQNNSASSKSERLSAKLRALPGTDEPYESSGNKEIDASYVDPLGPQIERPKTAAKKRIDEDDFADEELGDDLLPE

IFT20, FLAG-tagged (from UniProt Q61025 1-132)
binding [1]: no binding

B1: cilia and flagella associated protein 53 (CFAP53), MYC-tagged (protein, UniProt Q9D439 1-514)
chain: T1 sequence
binding [2]: binds
binding [3]: binds
